From US20210355229A1 (JIANGSU HENGRUI MEDICINE, published 2021)
These are yes or no findings as the source states them, for the method shown. Some entries that bind do so weakly or less than the wild type. Sequences can lack the tags named with a protein.

Molecular target: T1, human OX40-FC-biotin (human OX40 recombinant protein with Fc tag, Acro Biosystems OX40-H5255, labeled with biotin) (human) (UniProt P43489)
T1 sequence (labeled with biotin (site not stated), looked up): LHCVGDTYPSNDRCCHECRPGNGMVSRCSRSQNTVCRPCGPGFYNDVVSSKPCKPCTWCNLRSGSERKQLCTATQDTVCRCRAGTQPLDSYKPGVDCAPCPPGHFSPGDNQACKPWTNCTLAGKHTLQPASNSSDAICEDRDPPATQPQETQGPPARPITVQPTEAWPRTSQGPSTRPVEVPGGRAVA
Assay: capture ELISA, biotin-OX40-Fc

B1: humanized antibody hu4B5-V3 (antibody, human IgG1, V domains shown)
VH: QVQLQESGPGLVKPSETLSLTCTVSGFSLTSYGLHWIRQPPGKGLEWIGVIWSGGSTDYNAAFISRVTISKEDSKSQVSLKLSSVTAADTAVYYCAREEYDVWGQGTTVTVSS
VL: DIQMTQSPSSLSASVGDRVTITCRASQDISNYLNWYQQKPGKVPKLLIYYTSRLHSGVPSRFSGSGSGTDFTLTISSLQPEDVATYYCQQGNTLPWTFGGGTKVEIK
- binding: binds

B2: humanized antibody hu4B5-V5 (antibody, human IgG1, V domains shown)
VH: QVQLKESGPGLVKPSETLSLTCTVSGFSLTSYGLHWFRQPPGKGLEWLGVIWSGGSTDYNAAFISRLTISKEDSKSQVSLKLSSVTAADTAVYYCAREEYDVWGQGTTVTVSS
VL: DIQMTQSPSSLSASVGDRVTITCRASQDISNYLNWYQQKPGKVPKLLIYYTSRLHSGVPSRFSGSGSGTDFTLTISSLQPEDVATYYCQQGNTLPWTFGGGTKVEIK
- binding: binds

B3: humanized antibody hu4B5-V9 (antibody, human IgG1, V domains shown)
VH: QVQLQESGPGLVKPSETLSLTCTVSGFSLTSYGLHWIRQPPGKGLEWIGVIWSGGSTDYNAAFISRVTISKEDSKSQVSLKLSSVTAADTAVYYCAREEYDVWGQGTTVTVSS
VL: DIQMTQSPSSLSASVGDRVTITCRASQDISNYLNWYQQKPGKVPKLLIYYTSRLHSGVPSRFSGSGSGTDYTLTISSLQPEDVATYYCQQGNTLPWTFGGGTKVEIK
- binding: binds

B4: humanized antibody hu4B5-V11 (antibody, human IgG1, V domains shown)
VH: QVQLKESGPGLVKPSETLSLTCTVSGFSLTSYGLHWFRQPPGKGLEWLGVIWSGGSTDYNAAFISRLTISKEDSKSQVSLKLSSVTAADTAVYYCAREEYDVWGQGTTVTVSS
VL: DIQMTQSPSSLSASVGDRVTITCRASQDISNYLNWYQQKPGKVPKLLIYYTSRLHSGVPSRFSGSGSGTDYTLTISSLQPEDVATYYCQQGNTLPWTFGGGTKVEIK
- binding: binds

B5: humanized antibody hu4B5-V12 (antibody, human IgG1, V domains shown)
VH: QVQLKESGPGLVKPSETLSLTCTVSGFSLTSYGLHWFRQPPGKGLEWLGVIWSGGSTDYNAAFISRLTISKEDSKSQVSLKLSSVTAADTAVYYCAREEYDVWGQGTTVTVSS
VL: DIQMTQSPSSLSASVGDRVTITCRASQDISNYLNWYQQKPGGVPKLLIYYTSRLHSGVPSRFSGSGSGTDYTLTISSLQPEDVATYYCQQGNTLPWTFGGGTKVEIK
- binding: binds

B6: humanized antibody hu4B5-V13 (antibody, human IgG1, V domains shown)
VH: QVQLKESGPGLVKPSETLSLTCTVSGFSLTSYGLHWFRQPPGKGLEWLGVIWSGGSTDYNAAFISRLTISKEDSKSQVSLKLSSVTAADTAVYYCAREEYDVWGQGTTVTVSS
VL: DIQMTQSPSSLSASVGDRVTITCRASQDISNYLNWYQQKPGGVPKLLIYYTSRLHSGVPSRFSGSGSGTDYTLTISSLQQEDVATYYCQQGNTLPWTFGGGTKVEIK
- binding: binds

B7: humanized antibody hu4B5-V14 (antibody, human IgG1, V domains shown)
VH: QVQLKESGPGLVKPSETLSLTCTVSGFSLTSYGLHWFRQPPGKGLEWLGVIWSGGSTDYNAAFISRLTISKEDSKSQVSLKLSSVTAADTAVYYCAREEYDVWGQGTTVTVSS
VL: DIQMTQSPSSLSASVGDRVTITCRASQDISNYLNWYQQKPGGTVKLLIYYTSRLHSGVPSRFSGSGSGTDYTLTISSLQPEDVATYFCQQGNTLPWTFGGGTKVEIK
notes: hu4B5 VH4 + hu4B5 VL4; human IgG1 / human Kappa constant regions
- binding: binds

B8: humanized antibody hu4B5-V17 (antibody, human IgG1, V domains shown)
VH: QVQLQESGPGLVKPSETLSLTCTVSGFSLTSYGLHWIRQPPGKGLEWIGVIWSGGSTDYNAAFISRVTISKEDSKSQVSLKLSSVTAADTAVYYCAREEYDVWGQGTTVTVSS
VL: DIQMTQSPSSLSASVGDRVTITCRASQDISNYLNWYQQKPGGVPKLLIYYTSRLHSGVPSRFSGSGSGTDYTLTISSLQPEDVATYYCQQGNTLPWTFGGGTKVEIK
- binding: binds

B9: humanized antibody hu4B5-V20 (antibody, human IgG1, V domains shown)
VH: QVQLQESGPGLVKPSETLSLTCTVSGFSLTSYGLHWIRQPPGKGLEWIGVIWSGGSTDYNAAFISRVTISKEDSKSQVSLKLSSVTAADTAVYYCAREEYDVWGQGTTVTVSS
VL: DIQMTQSPSSLSASVGDRVTITCRASQDISNYLNWYQQKPGGVPKLLIYYTSRLHSGVPSRFSGSGSGTDYTLTISSLQQEDVATYYCQQGNTLPWTFGGGTKVEIK
- binding: binds

B10: humanized antibody hu4B5-V24 (antibody, human IgG1, V domains shown)
VH: QVQLQESGPGLVKPSETLSLTCTVSGFSLTSYGLHWIRQPPGKGLEWIGVIWSGGSTDYNAAFISRVTISKEDSKSQVSLKLSSVTAADTAVYYCAREEYDVWGQGTTVTVSS
VL: DIQMTQSPSSLSASVGDRVTITCRASQDISNYLNWYQQKPGGTVKLLIYYTSRLHSGVPSRFSGSGSGTDYTLTISSLQPEDVATYFCQQGNTLPWTFGGGTKVEIK
- binding: binds
